The text below walks through data of doi:10.1101/2025.06.13.659446.

Chains of the proteins cited; added tags and fusions are not shown.
UniProt O15169: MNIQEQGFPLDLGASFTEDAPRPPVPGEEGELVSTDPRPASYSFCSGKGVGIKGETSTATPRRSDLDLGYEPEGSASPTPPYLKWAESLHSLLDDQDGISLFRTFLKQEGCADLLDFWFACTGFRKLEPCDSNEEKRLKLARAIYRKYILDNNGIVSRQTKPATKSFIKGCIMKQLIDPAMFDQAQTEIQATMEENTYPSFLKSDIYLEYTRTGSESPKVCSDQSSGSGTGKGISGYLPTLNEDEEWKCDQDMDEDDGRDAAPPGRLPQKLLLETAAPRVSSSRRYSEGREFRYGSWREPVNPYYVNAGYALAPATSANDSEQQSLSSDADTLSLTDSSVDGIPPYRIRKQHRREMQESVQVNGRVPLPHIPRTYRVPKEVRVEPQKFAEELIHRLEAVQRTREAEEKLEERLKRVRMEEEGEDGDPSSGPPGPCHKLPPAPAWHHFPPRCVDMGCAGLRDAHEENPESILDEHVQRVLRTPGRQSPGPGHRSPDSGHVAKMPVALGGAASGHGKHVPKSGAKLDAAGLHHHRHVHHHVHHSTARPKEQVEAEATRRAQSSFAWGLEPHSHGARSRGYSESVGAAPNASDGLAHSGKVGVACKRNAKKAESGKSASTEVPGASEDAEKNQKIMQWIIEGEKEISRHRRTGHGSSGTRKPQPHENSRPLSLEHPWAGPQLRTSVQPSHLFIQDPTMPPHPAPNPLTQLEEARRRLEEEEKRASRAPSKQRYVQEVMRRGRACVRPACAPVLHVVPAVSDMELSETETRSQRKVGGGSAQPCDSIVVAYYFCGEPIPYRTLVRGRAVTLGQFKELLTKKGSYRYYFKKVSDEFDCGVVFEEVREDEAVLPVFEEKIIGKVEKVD
UniProt P35222: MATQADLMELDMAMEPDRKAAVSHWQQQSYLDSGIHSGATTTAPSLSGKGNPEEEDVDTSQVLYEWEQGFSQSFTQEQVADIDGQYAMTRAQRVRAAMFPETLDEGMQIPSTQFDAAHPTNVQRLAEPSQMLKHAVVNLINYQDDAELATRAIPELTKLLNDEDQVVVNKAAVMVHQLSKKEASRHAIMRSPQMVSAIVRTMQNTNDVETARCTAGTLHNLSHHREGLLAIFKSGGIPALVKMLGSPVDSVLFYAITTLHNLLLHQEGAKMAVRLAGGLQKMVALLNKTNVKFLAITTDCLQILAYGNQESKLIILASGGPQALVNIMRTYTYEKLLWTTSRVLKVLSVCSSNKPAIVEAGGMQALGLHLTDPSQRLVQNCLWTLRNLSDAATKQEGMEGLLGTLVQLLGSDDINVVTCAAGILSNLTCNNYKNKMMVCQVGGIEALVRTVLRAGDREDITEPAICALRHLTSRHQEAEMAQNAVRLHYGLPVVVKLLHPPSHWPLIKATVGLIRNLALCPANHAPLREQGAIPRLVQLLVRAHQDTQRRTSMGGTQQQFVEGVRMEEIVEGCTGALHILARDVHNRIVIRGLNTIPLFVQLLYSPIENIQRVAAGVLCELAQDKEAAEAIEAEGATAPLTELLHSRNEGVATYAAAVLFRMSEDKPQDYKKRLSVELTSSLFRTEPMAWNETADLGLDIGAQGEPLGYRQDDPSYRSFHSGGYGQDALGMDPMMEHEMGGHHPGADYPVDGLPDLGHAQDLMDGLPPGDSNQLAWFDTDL

These are yes or no findings as the source states them, for the method shown. In cells and extracts the contact can be indirect. These calls come from enrichment with a bait or labelling near it, and not all partners need be listed.

In the assay the target is AXIN1 (human (endogenous in HCT116)) (UniProt O15169). The assay is described as follows: affinity purification with mass spectrometry.

Consider “beta-catenin (from UniProt P35222 1-781)”, for which the binding entry is “binds”.
